{"source": "the supplement of paper PMC9549374", "tested_on": "CM7/1-hgem mouse ES cell-derived cardiomyocytes", "test": "maximal number of mAG-hGem(1/110)-positive cardiomyocytes over 96 h, fold-change vs DMSO; higher = more cardiomyocyte cell cycle activity", "details": "1 µM; 96 (max over 12 h time points) h", "note": "Some of the results follow. Rule as the data show it: active = 2-fold of DMSO or more and inactive = the rest. Single values of this set are uncertain. Some low values are a fixed figure set by the source, not a measured ratio.", "data": [{"smiles": "c1ccc2c(c1)[nH]c1cnccc12", "values": [{"measurement": "maximal number", "result": "inactive: 1"}]}, {"smiles": "O=c1n(Cl)c(=O)n(Cl)c(=O)n1Cl", "values": [{"measurement": "maximal number", "result": "inactive: 0"}]}, {"smiles": "CC1(C)C(=O)C=C[C@@]2(C)C1=C(O)C(=O)[C@]1(C)[C@@H]2CC[C@@]2(C)[C@H](c3ccoc3)C[C@H]3O[C@]321", "values": [{"measurement": "maximal number", "result": "inactive: 1"}]}, {"smiles": "C[C@]12CC[C@@H]3c4ccc(OC(=O)N(CCCl)CCCl)cc4CC[C@H]3[C@@H]1CC[C@@H]2O", "values": [{"measurement": "maximal number", "result": "inactive: 0"}]}, {"smiles": "COc1cc2occc2c2oc(=O)ccc12", "values": [{"measurement": "maximal number", "result": "inactive: 1"}]}, {"smiles": "CN1CCc2cc3c(cc2[C@H]1[C@@H]1OC(=O)c2c1ccc1c2OCO1)OCO3", "values": [{"measurement": "maximal number", "result": "inactive: 1"}]}, {"smiles": "NC(=O)C[S+]([O-])C(c1ccccc1)c1ccccc1", "note": "(stereo not drawn)", "values": [{"measurement": "maximal number", "result": "inactive: 1"}]}, {"smiles": "CC(C)=CC1C(C(=O)OCc2cccc(Oc3ccccc3)c2)C1(C)C", "note": "(stereo not drawn)", "values": [{"measurement": "maximal number", "result": "inactive: 1"}]}, {"smiles": "CC([C@H](O)c1ccccc1)N(C)C", "note": "(stereo partly drawn)", "values": [{"measurement": "maximal number", "result": "inactive: 1"}]}, {"smiles": "C[C@@H]1O[C@@H](O[C@H]2CC[C@]3(C=O)[C@H]4CC[C@]5(C)[C@@H](C6=CC(=O)OC6)CC[C@]5(O)[C@@H]4CC[C@]3(O)C2)[C@H](O)[C@H](O)[C@H]1O", "values": [{"measurement": "maximal number", "result": "active: 4"}]}, {"smiles": "CC(=O)OC1CCC23C(=O)OC45CCC(C6=CC(=O)OC6)C4(C)CCC2C5CCC3(O)C1", "note": "(stereo not drawn)", "values": [{"measurement": "maximal number", "result": "inactive: 0"}]}, {"smiles": "CC1=NCCc2c1[nH]c1cc(O)ccc21", "values": [{"measurement": "maximal number", "result": "inactive: 1"}]}, {"smiles": "C[C@H]1CC[C@]2(NC1)O[C@H]1C[C@H]3[C@@H]4CC[C@H]5C[C@@H](O[C@@H]6O[C@H](CO)[C@H](O[C@@H]7O[C@H](CO)[C@@H](O)[C@H](O[C@@H]8OC[C@@H](O)[C@H](O)[C@H]8O)[C@H]7O[C@@H]7O[C@H](CO)[C@@H](O)[C@H](O)[C@H]7O)[C@H](O)[C@H]6O)CC[C@]5(C)[C@H]4CC[C@]3(C)[C@H]1[C@@H]2C", "values": [{"measurement": "maximal number", "result": "inactive: 1"}]}]}
